{
  "source": "paper PMC7558399",
  "about": "“In Vitro Selective Growth-Inhibitory Activities of Phytochemicals, Synthetic Phytochemical Analogs, and Antibiotics against Diarrheagenic/Probiotic Bacteria and Cancer/Normal Intestinal Cells” (Pharmaceuticals, 2020)",
  "key": {"[1]": {"test_system": "Caco-2 (ATCC HTB 37) intestinal cancer cells", "experiment": "MTT cytotoxicity assay, Caco-2", "format": "cell-based", "details": "Homo sapiens, 72 h"}, "[2]": {"test_system": "intestinal cancer cells (HT29 and Caco-2)", "experiment": "MTT cytotoxicity assay, mean for intestinal cancer cells", "format": "cell-based"}},
  "data": [
    {"smiles": "O=C(O)c1cn(C2CC2)c2cc(N3CCNCC3)c(F)cc2c1=O", "note": "[CP, ciprofloxacin]", "values": [
      {"measurement": "IC50", "setting": "[1]", "result": "69.9 ± 4.9", "unit": "µg/mL"},
      {"measurement": "IC80", "setting": "[1]; read-out: IC80 ± SD (80% inhibitory concentration of proliferation)", "result": "> 512", "unit": "µg/mL"},
      {"measurement": "IC50", "setting": "[2]; mean of HT29 and Caco-2, >512 replaced with 1024, read-out: x¯ -CC ± SD: mean IC50 for intestinal cancer cells", "result": "100 ± 30", "unit": "µg/mL"},
      {"measurement": "IC80", "setting": "[2]; read-out: x¯ -CC ± SD: mean IC80 for intestinal cancer cells", "result": "> 512", "unit": "µg/mL"}
    ]}
  ]
}
